Drawing on paper PMC12434083, this text covers binding for 5 molecules.

Where two headings read alike, the source gives them in different places. These are yes or no findings as the source states them, for the method shown. Binding seen in cells or lysates may run through a third protein. A yes stands for co-enrichment or nearness to the bait. Other partners may have been found. A no says only that the protein was not detected with the bait.

The target of assay [1] is SigA-TS (housekeeping sigma factor SigA with a C-terminal Twin-Strep-tag) (Bacillus subtilis) (UniProt P06224). Nature of the assay: affinity purification with mass spectrometry; TIE-UP-SIN: 14N/15N metabolic labelling, in vivo cross-linking with 0.2% or 0.4% (w/v) formaldehyde (15 min, 37°C), pellets mixed before lysis (WT/WT, Bait/WT, Bait/Bait), SigA-TS captured by its Twin-Strep-tag on MagStrep Strep-Tactin XT beads (20 mM HEPES pH 8, 1% Tween20, 1 h, room temperature), eluted with 100 mM biotin, cross-links reversed (95°C, 2 h), DIA LC-MS/MS, light/heavy ratios; cells in exponential growth or 10 min after 4% (v/v) ethanol; eluates also checked by Western blot (Strep-Tactin conjugate) and silver gel. For orientation: A western blot detects proteins with antibodies after separation by electrophoresis.

For assay [2] the target is unchanged. The assay is described as above. The source holds these as a separate data set.

Turning to PurA (from UniProt P29726 1-430), the binding result in assay [1] is “no binding”.

On to “ClpX, the ATPase subunit of the ATP-dependent ClpXP protease (from UniProt P50866 1-420)”, for which the binding result in assay [1] is listed as “binds”.

B1: AcpA, the acyl carrier protein (protein, UniProt P80643 1-77)
chain: MADTLERVTKIIVDRLGVDEADVKLEASFKEDLGADSLDVVELVMELEDEFDMEISDEDAEKIATVGDAVNYIQNQQ
Take B1: the binding result in assay [2] is on record as “binds”.

B2: pyruvate carboxylase (PycA) (protein, UniProt Q9KWU4 1-1148)
chain: MSQQSIQKVLVANRGEIAIRIFRACTELNIRTVAVYSKEDSGSYHRYKADEAYLVGEGKKPIDAYLDIEGIIDIAKRNKVDAIHPGYGFLSENIHFARRCEEEGIVFIGPKSEHLDMFGDKVKAREQAEKAGIPVIPGSDGPAETLEAVEQFGQANGYPIIIKASLGGGGRGMRIVRSESEVKEAYERAKSEAKAAFGNDEVYVEKLIENPKHIEVQVIGDKQGNVVHLFERDCSVQRRHQKVIEVAPSVSLSPELRDQICEAAVALAKNVNYINAGTVEFLVANNEFYFIEVNPRVQVEHTITEMITGVDIVQTQILVAQGHSLHSKKVNIPEQKDIFTIGYAIQSRVTTEDPQNDFMPDTGKIMAYRSGGGFGVRLDTGNSFQGAVITPYYDSLLVKLSTWALTFEQAAAKMVRNLQEFRIRGIKTNIPFLENVAKHEKFLTGQYDTSFIDTTPELFNFPKQKDRGTKMLTYIGNVTVNGFPGIGKKEKPAFDKPLGVKVDVDQQPARGTKQILDEKGAEGLANWVKEQKSVLLTDTTFRDAHQSLLATRIRSHDLKKIANPTAALWPELFSMEMWGGATFDVAYRFLKEDPWKRLEDLRKEVPNTLFQMLLRSSNAVGYTNYPDNVIKEFVKQSAQSGIDVFRIFDSLNWVKGMTLAIDAVRDTGKVAEAAICYTGDILDKNRTKYDLAYYTSMAKELEAAGAHILGIKDMAGLLKPQAAYELVSALKETIDIPVHLHTHDTSGNGIYMYAKAVEAGVDIIDVAVSSMAGLTSQPSASGFYHAMEGNDRRPEMNVQGVELLSQYWESVRKYYSEFESGMKSPHTEIYEHEMPGGQYSNLQQQAKGVGLGDRWNEVKEMYRRVNDMFGDIVKVTPSSKVVGDMALYMVQNNLTEKDVYEKGESLDFPDSVVELFKGNIGQPHGGFPEKLQKLILKGQEPITVRPGELLEPVSFEAIKQEFKEQHNLEISDQDAVAYALYPKVFTDYVKTTESYGDISVLDTPTFFYGMTLGEEIEVEIERGKTLIVKLISIGEPQPDATRVVYFELNGQPREVVIKDESIKSSVQERLKADRTNPSHIAASMPGTVIKVLAEAGTKVNKGDHLMINEAMKMETTVQAPFSGTIKQVHVKNGEPIQTGDLLLEIEKA
modifications: biotinylated (site not given)
In the case of B2, the binding entry in assay [2] was “no binding”.

B3: Spo0M (protein, UniProt P71088 1-258)
chain: MSFFKKLAASAGIGAAKVDTILEKDAYFPGEEVQGTVHVKGGKIAQDIRYIDLQLSTRYVIVKDDEEHRKYATIHSFRVTGSFTIQPGEEHQFPFTFTLPLDTPITVGKVEVAVVTDLDIQGGIDKSDHDRIFVEAHPWIENVLEAIENLGFRLNEADCEQAPYFQRRLPFVQEFEFVPTSGYYRQMLDELELIFLLDEDGLEIIFEVDRRARGLRGWLEEMYNDGEQLVRVRFSQSELEDTEELEEVLEEILDQYAE
As for B3, the binding entry in assay [2] is “binds”.
